This note sets out measurements from PMC3738497.

Protein sequences, listed by entry. Tags and fused reporters are not part of them. Residues count along the entry.
UniProt O75460, residues 19-977: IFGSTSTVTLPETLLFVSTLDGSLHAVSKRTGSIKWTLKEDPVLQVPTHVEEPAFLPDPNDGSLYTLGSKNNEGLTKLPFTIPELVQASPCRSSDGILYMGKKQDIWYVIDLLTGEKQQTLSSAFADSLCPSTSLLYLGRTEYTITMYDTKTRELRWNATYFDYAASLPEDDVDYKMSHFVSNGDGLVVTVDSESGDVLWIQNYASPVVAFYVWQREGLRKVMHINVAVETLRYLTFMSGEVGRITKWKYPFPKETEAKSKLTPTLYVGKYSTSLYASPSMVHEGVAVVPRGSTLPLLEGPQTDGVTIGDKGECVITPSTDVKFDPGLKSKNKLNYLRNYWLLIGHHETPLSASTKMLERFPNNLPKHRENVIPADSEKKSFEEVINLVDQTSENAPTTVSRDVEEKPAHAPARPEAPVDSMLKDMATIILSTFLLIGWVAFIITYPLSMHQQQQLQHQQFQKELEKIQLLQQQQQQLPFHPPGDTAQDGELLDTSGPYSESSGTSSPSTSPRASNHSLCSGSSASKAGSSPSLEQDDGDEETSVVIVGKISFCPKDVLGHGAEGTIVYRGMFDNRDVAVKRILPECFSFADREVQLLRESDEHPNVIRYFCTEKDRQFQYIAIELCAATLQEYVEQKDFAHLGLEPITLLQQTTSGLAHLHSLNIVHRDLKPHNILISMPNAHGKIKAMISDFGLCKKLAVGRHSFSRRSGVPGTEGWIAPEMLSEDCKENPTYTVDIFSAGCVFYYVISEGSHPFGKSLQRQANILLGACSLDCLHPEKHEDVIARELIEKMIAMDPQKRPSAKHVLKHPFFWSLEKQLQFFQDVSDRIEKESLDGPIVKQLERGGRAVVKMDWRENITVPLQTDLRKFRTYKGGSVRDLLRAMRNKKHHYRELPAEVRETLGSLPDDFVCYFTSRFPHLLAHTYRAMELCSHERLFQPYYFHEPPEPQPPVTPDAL
UniProt P16791: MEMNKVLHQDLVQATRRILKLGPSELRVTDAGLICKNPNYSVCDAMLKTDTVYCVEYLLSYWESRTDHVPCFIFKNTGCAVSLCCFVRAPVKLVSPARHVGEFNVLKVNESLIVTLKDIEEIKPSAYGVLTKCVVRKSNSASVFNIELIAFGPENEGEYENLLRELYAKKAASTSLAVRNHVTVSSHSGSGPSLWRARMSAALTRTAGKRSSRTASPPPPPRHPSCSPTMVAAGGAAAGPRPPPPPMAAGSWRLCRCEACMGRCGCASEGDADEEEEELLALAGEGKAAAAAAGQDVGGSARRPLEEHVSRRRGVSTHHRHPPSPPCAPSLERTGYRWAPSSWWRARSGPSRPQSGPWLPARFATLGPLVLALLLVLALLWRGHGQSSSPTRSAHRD

These are yes or no findings as the source states them, for the method shown. Binding seen in cells or lysates may run through a third protein. Some results given as binding are weak or reduced against the parent protein; the word gives no strength.

The assay has as its target HA-tagged murine or human IRE1 (Figure 7A) (not stated (human or mouse cDNA cloned)) (UniProt O75460). Description: co-IP; 293A cells cotransfected, lysed after 24 h with RIPA buffer; IRE1-HA precipitated with an anti-HA antibody; coprecipitated proteins detected by immunoblot with anti-Flag or M50-specific antibody. For orientation: In western blotting, separated proteins are transferred to a membrane and probed.

On to “UL50-Flag (Flag-tagged HCMV UL50) (from UniProt P16791 1-397)”, for which the binding entry is “binds”.
